PubChem BioAssay AID1259254, NCATS – 2017

- Screen: 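Gene knock-downs that lead to re-replication, shown by excess G2 DNA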 (primary screen)
- Cell system: human HCT116 colorectal cancer cells
- Reagents: single siRNA against human genes
- Timing: 3 days
- Measured: 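Nuclei stained with Hoechst and imaged; cell-cycle phase assigned by DNA content; G2 share scaled per plate, non-targeting siRNA 0%, GMNN siRNA 100%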
- Reading the numbers: G2 robust z-score: higher = more G2 cells, more excess DNA replication
- Hit rule: 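Active siRNAs have a G2 robust z of 5 or more median absolute deviations over the median, which in these data means about 38% or higher of GMNN control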
In all, the deposit lists about 59,000 reagents; this is a random part of them. About 1,550 of them (2.6%) count as active. 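G2 share is only a proxy for re-replication; each gene was hit by three separate siRNAs, and active genes were retested.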 The numbers tell different reagents against one gene apart. Not all columns of the deposit are shown. The record does not give: the amount of reagent.

{"gene symbol":"PDE6G (phosphodiesterase 6G)","reagent no.":1,"G2 robust z-score":-0.772,"Outcome":"inactive"}
{"gene symbol":"PDE6G (phosphodiesterase 6G)","reagent no.":2,"G2 robust z-score":-0.573,"Outcome":"inactive"}
{"gene symbol":"PDE6G (phosphodiesterase 6G)","reagent no.":3,"G2 robust z-score":1.72,"Outcome":"inactive"}
{"gene symbol":"MRFAP1 (Morf4 family associated protein 1)","reagent no.":1,"G2 robust z-score":5.21,"Outcome":"active"}
{"gene symbol":"MRFAP1 (Morf4 family associated protein 1)","reagent no.":2,"G2 robust z-score":0.692,"Outcome":"inactive"}
{"gene symbol":"MRFAP1 (Morf4 family associated protein 1)","reagent no.":3,"G2 robust z-score":-0.171,"Outcome":"inactive"}
{"gene symbol":"IL36G (interleukin 36 gamma)","reagent no.":1,"G2 robust z-score":6.2,"Outcome":"active"}
{"gene symbol":"IL36G (interleukin 36 gamma)","reagent no.":2,"G2 robust z-score":-0.238,"Outcome":"inactive"}
{"gene symbol":"IL36G (interleukin 36 gamma)","reagent no.":3,"G2 robust z-score":1.27,"Outcome":"inactive"}
{"gene symbol":"ZMYM4 (zinc finger MYM-type containing 4)","reagent no.":1,"G2 robust z-score":-0.315,"Outcome":"inactive"}
{"gene symbol":"ZMYM4 (zinc finger MYM-type containing 4)","reagent no.":2,"G2 robust z-score":-0.183,"Outcome":"inactive"}
{"gene symbol":"ZMYM4 (zinc finger MYM-type containing 4)","reagent no.":3,"G2 robust z-score":1.86,"Outcome":"inactive"}
